Experimental data published in patent US20050033020.
Construct, isoform or probe ends are uncertain for at least one entry. For some assays here: Results from cells or extracts need not show a direct contact.

Chains of the proteins cited; added tags and fusions are not shown. A change or cut given only in a name is not applied to a line headed by its entry. A line that says so, or that is headed by a name, gives the form on record, which may keep a tag or linker.
UniProt P26599, other isoform, or with tags, fused parts or gaps: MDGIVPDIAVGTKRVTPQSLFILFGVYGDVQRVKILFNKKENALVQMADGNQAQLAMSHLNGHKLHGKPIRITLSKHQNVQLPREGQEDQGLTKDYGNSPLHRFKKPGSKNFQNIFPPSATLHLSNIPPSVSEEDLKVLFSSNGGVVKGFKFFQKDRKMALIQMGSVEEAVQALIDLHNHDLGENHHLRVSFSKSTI
UniProt Q8WN55: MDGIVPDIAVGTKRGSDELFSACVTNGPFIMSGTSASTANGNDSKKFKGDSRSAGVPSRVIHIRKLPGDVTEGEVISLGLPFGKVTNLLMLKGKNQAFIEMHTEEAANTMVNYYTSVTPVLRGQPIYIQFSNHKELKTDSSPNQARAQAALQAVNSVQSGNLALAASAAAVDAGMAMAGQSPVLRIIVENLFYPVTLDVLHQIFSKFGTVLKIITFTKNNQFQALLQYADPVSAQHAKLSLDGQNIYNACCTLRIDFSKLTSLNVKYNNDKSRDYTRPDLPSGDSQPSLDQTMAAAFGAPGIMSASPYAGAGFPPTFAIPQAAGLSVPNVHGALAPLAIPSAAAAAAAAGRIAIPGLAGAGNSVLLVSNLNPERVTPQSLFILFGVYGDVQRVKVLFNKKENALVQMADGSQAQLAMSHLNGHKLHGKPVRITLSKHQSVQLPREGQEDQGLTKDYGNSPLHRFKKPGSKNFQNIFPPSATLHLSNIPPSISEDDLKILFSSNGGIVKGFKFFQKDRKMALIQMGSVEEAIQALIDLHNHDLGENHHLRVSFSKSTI
p25 (PTB-T related protein) (Bos taurus), one chain, as listed by the source: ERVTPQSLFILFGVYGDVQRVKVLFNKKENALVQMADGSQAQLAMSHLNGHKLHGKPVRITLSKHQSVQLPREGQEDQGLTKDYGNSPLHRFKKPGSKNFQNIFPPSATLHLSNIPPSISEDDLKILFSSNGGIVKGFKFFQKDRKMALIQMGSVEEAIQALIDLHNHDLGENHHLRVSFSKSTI

How the values were obtained:
Experiment in all cases: binding assay
[1] = biological target: p25 (PTB-T) (Homo sapiens) (UniProt P26599); details: UV crosslinking; binding mapped to nt 468-835; cell extract; protein in an extract; protein details: Jurkat and PBL extracts; label: alpha-32P-UTP
[2] = test system: p25 (PTB-T related protein) (Bos taurus); details: UV crosslinking with RNase T1/A then SDS-PAGE; 15 mM KCl, yeast tRNA, 30 C; binding activity followed through purification; purified native protein; label: alpha-32P-UTP
[3] = biological target: PTB (hnRNP I, p50) (Bos taurus) (UniProt Q8WN55); details: UV crosslinking with RNase T1/A then SDS-PAGE; 15 mM KCl, yeast tRNA, 30 C; binding activity followed through purification; purified native protein; label: alpha-32P-UTP
[4] = test system: p40 CD154 3'-UTR binding protein (Homo sapiens); details: UV crosslinking; binding mapped to nt 468-835; cell extract; protein in an extract; protein details: Jurkat and PBL extracts; label: alpha-32P-UTP
p50 (PTB) (Homo sapiens) = p50 (PTB) (Homo sapiens) (UniProt P26599); details: UV crosslinking; binding mapped to nt 468-835; cell extract; protein in an extract; protein details: Jurkat and PBL extracts; label: alpha-32P-UTP

Measured: binding result

CAGGCUCUAGAACGUCUAACACAGUGGAGAACCGAAACCCCCCCCCCCCCCCCCGCCACCCUCUCGGACAGUUAUUCAUUCUCUUUCAAUCUCUCUCUCUCCAUCUCUCUCUUUCAGUCUCUCUCUCUCAACCUCUUUCUUCCAAUCUCUCUUUCUCAAUCUCUCUGUUUCCCUUUGUCAGUCUCUUCCCUCCCCCAGUCUCUCUUCUCUCCCCCUUUCUAACACACACACACACACACACACACACACACACACACACACACACACACACACACACACACACACAGAGUCAGGCCGUUGCUAGUCAGUUCUCUUCUUUCCACCCUGUCCCUAUCUCUACCACUAUAGAUGAGGGUGAGGAGUAG [CD154 3'-UTR 468-835]
binds: all assays above
